According to article PMC7614687, “Modulation of the substrate specificity of the kinase PDK1 by distinct conformations of the full-length protein*” (Science signaling, 2023):
These are yes or no findings as the source states them, for the method shown. Some binding calls cover weakened binding; strength is not graded here. Sequences can lack the tags named with a protein.

T1: His-PDK1_(1-556), O15530
T1 chain: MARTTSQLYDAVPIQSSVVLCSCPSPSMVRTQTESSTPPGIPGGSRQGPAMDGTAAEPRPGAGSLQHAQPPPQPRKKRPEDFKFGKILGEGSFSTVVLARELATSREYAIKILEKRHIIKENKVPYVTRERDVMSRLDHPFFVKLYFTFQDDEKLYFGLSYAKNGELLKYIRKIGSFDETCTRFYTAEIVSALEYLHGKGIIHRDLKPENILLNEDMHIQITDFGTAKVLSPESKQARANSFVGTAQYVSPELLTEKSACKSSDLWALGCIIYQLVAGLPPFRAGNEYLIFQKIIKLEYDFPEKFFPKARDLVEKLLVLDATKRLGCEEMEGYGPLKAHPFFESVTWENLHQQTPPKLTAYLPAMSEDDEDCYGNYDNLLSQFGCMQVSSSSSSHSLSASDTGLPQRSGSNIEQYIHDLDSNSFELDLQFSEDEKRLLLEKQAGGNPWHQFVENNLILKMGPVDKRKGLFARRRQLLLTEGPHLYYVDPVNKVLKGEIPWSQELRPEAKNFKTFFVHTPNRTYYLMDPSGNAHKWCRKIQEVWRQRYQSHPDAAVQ

T2: GST-PDK1_(1-556), O15530
T2 chain: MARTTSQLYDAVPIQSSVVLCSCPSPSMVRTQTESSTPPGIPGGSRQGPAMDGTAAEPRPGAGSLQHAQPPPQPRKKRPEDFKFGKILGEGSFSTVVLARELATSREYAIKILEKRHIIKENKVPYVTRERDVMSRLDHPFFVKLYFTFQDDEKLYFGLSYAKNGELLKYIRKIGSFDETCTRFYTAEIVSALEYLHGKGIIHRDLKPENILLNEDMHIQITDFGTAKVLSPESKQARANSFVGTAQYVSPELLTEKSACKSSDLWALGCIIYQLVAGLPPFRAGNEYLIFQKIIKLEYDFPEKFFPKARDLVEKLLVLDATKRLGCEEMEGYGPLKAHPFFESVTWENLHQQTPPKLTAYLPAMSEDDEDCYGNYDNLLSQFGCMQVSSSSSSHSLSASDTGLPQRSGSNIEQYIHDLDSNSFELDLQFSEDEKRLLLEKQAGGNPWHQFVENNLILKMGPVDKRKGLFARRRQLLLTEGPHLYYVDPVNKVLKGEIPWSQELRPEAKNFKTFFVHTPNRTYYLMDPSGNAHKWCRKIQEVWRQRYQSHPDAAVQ

T3: GST-PDK1_(1-556) (UniProt O15530 1-556)
T3 construct: source: HEK293 cells, transient transfection of pEBG2T plasmid, purified, dialyzed to remove GSH
T3 sequence (looked up): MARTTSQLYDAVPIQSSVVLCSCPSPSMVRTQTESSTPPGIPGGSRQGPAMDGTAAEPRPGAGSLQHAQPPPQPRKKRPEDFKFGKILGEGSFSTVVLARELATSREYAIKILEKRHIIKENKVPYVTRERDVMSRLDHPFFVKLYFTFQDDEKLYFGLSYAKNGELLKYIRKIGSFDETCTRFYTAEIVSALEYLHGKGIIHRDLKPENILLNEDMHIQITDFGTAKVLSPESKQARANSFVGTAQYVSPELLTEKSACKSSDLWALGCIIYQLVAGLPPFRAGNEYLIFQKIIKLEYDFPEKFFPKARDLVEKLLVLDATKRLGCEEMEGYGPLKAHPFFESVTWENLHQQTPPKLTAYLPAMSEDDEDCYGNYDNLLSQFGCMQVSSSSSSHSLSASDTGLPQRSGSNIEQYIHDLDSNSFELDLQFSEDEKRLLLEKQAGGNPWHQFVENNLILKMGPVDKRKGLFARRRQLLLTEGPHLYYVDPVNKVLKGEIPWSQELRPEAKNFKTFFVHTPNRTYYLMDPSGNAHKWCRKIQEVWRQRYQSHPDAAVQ

T4: GST-PDK1_(360-556) (UniProt O15530)
T4 sequence: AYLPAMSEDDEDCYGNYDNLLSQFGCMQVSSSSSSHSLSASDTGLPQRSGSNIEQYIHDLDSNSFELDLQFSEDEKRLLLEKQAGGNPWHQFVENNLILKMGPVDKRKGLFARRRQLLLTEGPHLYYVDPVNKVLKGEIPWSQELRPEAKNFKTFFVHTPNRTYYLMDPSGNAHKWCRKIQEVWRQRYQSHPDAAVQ


Key:
His-PDK1_(1-556), O15530 = target: T1, His-PDK1_(1-556), O15530; test: small-angle X-ray scattering (batch); 20 mM Tris-HCl pH 7,4, 250 mM NaCl, 1 mM DTT; without HYG8; both purified; conditions: remark: other sources report otherwise
GST-PDK1_(1-556), O15530 = target: T2, GST-PDK1_(1-556), O15530; test: AlphaScreen or HTRF; His-PDK1_(1-556) and GST-PDK1_(1-556); nickel chelate-coated acceptor beads and GSH-coated donor beads; pH 7.4, 150 mM NaCl, 0.1% BSA, 0.05% Tween20, 2 mM DTT; 60 min at room temperature; both purified; conditions: remark: other sources report otherwise
GST-PDK1_(1-556) = target: T3, GST-PDK1_(1-556); test: AlphaScreen or HTRF; as a1 (His-PDK1_(1-556) and GST-PDK1_(1-556)), with inositol phosphate derivatives added; both purified
GST-PDK1_(360-556) = target: T4, GST-PDK1_(360-556); test: condition: only with HYG6, HYG7, HYG8 or HYG14 (IC50 20-35 nM); AlphaScreen or HTRF; as a2 (His-PDK1_(1-556) and GST-PDK1_(360-556)), with inositol phosphate derivatives HYG6, HYG7, HYG8 or HYG14 added; both purified

Row | binding (His-PDK1_(1-556), O15530) | binding (GST-PDK1_(1-556), O15530) | binding (GST-PDK1_(360-556)) | Binder | binding (GST-PDK1_(1-556))
1 | binds | binds |  | His-PDK1_(1-556), O15530 1-556 (enzyme) MARTTSQLYDAVPIQSSVVLCSCPSPSMVRTQTESSTPPGIPGGSRQGPAMDGTAAEPRPGAGSLQHAQPPPQPRKKRPEDFKFGKILGEGSFSTVVLARELATSREYAIKILEKRHIIKENKVPYVTRERDVMSRLDHPFFVKLYFTFQDDEKLYFGLSYAKNGELLKYIRKIGSFDETCTRFYTAEIVSALEYLHGKGIIHRDLKPENILLNEDMHIQITDFGTAKVLSPESKQARANSFVGTAQYVSPELLTEKSACKSSDLWALGCIIYQLVAGLPPFRAGNEYLIFQKIIKLEYDFPEKFFPKARDLVEKLLVLDATKRLGCEEMEGYGPLKAHPFFESVTWENLHQQTPPKLTAYLPAMSEDDEDCYGNYDNLLSQFGCMQVSSSSSSHSLSASDTGLPQRSGSNIEQYIHDLDSNSFELDLQFSEDEKRLLLEKQAGGNPWHQFVENNLILKMGPVDKRKGLFARRRQLLLTEGPHLYYVDPVNKVLKGEIPWSQELRPEAKNFKTFFVHTPNRTYYLMDPSGNAHKWCRKIQEVWRQRYQSHPDAAVQ | 
2 |  |  | no binding | His-PDK1_(1-556) (enzyme, UniProt O15530 1-556) MARTTSQLYDAVPIQSSVVLCSCPSPSMVRTQTESSTPPGIPGGSRQGPAMDGTAAEPRPGAGSLQHAQPPPQPRKKRPEDFKFGKILGEGSFSTVVLARELATSREYAIKILEKRHIIKENKVPYVTRERDVMSRLDHPFFVKLYFTFQDDEKLYFGLSYAKNGELLKYIRKIGSFDETCTRFYTAEIVSALEYLHGKGIIHRDLKPENILLNEDMHIQITDFGTAKVLSPESKQARANSFVGTAQYVSPELLTEKSACKSSDLWALGCIIYQLVAGLPPFRAGNEYLIFQKIIKLEYDFPEKFFPKARDLVEKLLVLDATKRLGCEEMEGYGPLKAHPFFESVTWENLHQQTPPKLTAYLPAMSEDDEDCYGNYDNLLSQFGCMQVSSSSSSHSLSASDTGLPQRSGSNIEQYIHDLDSNSFELDLQFSEDEKRLLLEKQAGGNPWHQFVENNLILKMGPVDKRKGLFARRRQLLLTEGPHLYYVDPVNKVLKGEIPWSQELRPEAKNFKTFFVHTPNRTYYLMDPSGNAHKWCRKIQEVWRQRYQSHPDAAVQ | no binding (condition: with HYG6, HYG7, HYG8 or HYG14)
